# Screen size: about 300,000 compounds; about 3,700 (1.2%) were called active. The inconclusive results got no clear call from the source; some entries with a clear call stand among them for comparison. The call rests on the fitted dose curve; tested in HEK293 cells. Potencies beside an inconclusive call are fits to weak or partial responses and may not hold up.
# Assay: qHTS for Inhibitors of binding or entry into cells for Lassa Virus; further: nearly all actives have a fitted effect of over 50% in size
# Conditions: Lassa virus pseudotype entry inhibition, cell reporter; activity change, negative = inhibition: at 37.9 µM (top of the series) unless noted
# On the % scale 0 is the no-effect control and ±100 the full control effect; potency means the concentration at half of the fitted maximal effect.
Structure (SMILES),"activity change, negative = inhibition",Potency
CN(C(=S)Nc1ccc(Oc2ccccc2)cc1)C1CCCCC1,inactive: -6.52%,–
O=C(Nc1ccc(Cl)cc1)c1cccc(OC(=S)N2CCOCC2)c1,–,"inconclusive: 14.1 µM [inhibitor, single point]"
O=C(CCCN1CCC(O)(c2cccc(C(F)(F)F)c2)CC1)c1ccc(F)cc1,–,"inconclusive: 8.2 µM [inhibitor, partial curve]"
CCSc1ncc(Cl)c(C(=O)N(Cc2ccc(C(C)(C)C)cc2)C2CCS(=O)(=O)C2)n1 (stereo unspecified),inactive: -28.2% [at 46.1 µM],–
CC(=O)Nc1sc(N/N=C\c2ccccc2)nc1-c1cccs1,inactive: 20.2%,–
CCOC(=O)Nc1cccc(C(=O)O)c1,–,"inconclusive: 28.2 µM [activator, single point]"
COCCNC(=O)c1cc(-c2ccc(OC)c(OC)c2)on1,inactive: -13.4%,–
COc1ccc2c(c1)c1c(c(=O)n(Cc3ccccc3)c(=O)n1Cc1ccccc1)n2C,inactive: 5.95% [at 46.1 µM],–
O=C(NCC(c1ccccc1Cl)N1CCCC1)c1ccc(N2CCCC2=O)cc1 (stereo unspecified),–,"inconclusive: 2.82 µM [activator, partial curve, poor fit]"
CCOC(=O)NC(=O)CSc1nc(C)cc(C(F)(F)F)c1C#N,inactive: 19.6%,–
CCOC(=O)C1=CC(=C2C(=O)N(CC)C(=S)N(CC)C2=O)c2ccccc2O1,inactive: 8.48%,–
O=C1C2C3c4ccccc4C(c4ccccc43)C2C(=O)N1c1cccnc1 (stereo unspecified),–,"inconclusive: 0.58 µM [inhibitor, single point]"
O=C(NNC(=S)NCc1ccco1)c1ccc(S(=O)(=O)N2CCOCC2)cc1,inactive: -1.12%,–
Oc1ccc(-c2cn3c(n2)SCC3)cc1,inactive: 14.5%,–
CC(C)c1ccc(Nc2ncccc2C#N)cc1,–,"inconclusive: 8.91 µM [activator, partial curve]"
O=C(CNC(=O)c1cccc([N+](=O)[O-])c1)NC1CCCc2ccccc21 (stereo unspecified),inactive: -3.38%,–
Cc1ccc(S(=O)(=O)N(CC(=O)Nc2cccc([N+](=O)[O-])c2)C(=O)N2CCN(C)CC2)cc1,–,"inconclusive: 6.31 µM [inhibitor, single point]"
O=C(Nc1cccc(-c2nc3ccccc3[nH]2)c1)c1c(F)cccc1F,inactive: 15.6% [at 46.1 µM],–
Cc1ccc(Nc2nc(N)nc(CSc3nccn3C)n2)c(C)c1,–,"inconclusive: 3.98 µM [activator, single point]"
COc1ccc(C2CC(C(F)(F)F)n3nc(C(=O)N(C)Cc4cn(C)nc4C)c(Cl)c3N2)cc1 (stereo unspecified),inactive: -1.5%,–
COc1ccc(N/C=C\C(=O)c2ccc(C)cc2)cc1OC,inactive: -1.61% [at 46.1 µM],–
COc1ccc2c(c1)C1(Nc3ccccc3-c3nc4ccccc4n31)C(=O)N2 (stereo unspecified),inactive: 9.09%,–
O=[N+]([O-])c1cccc(/C([O-])=C(/C(=S)Nc2ccccc2)[n+]2ccccc2)c1,inactive: 9.29%,–
Cc1ccc(S(=O)(=O)Nc2ccc3nc(-c4cccn4C)[nH]c3c2)cc1,–,"inconclusive: 8.91 µM [inhibitor, partial curve, poor fit]"
Cc1ccc(C(=O)NCC(=O)OCc2cc(=O)n3nc(C4CC4)sc3n2)cc1,inactive: 0.838% [at 46.1 µM],–
COc1cc2c(cc1NC(=S)Nc1ccccc1C)oc1ccccc12,inactive: 7.15%,–

Structure (SMILES),"activity change, negative = inhibition",Potency
C=CCNCCCCOc1c(Cl)cc(C)cc1Br,inactive: -5.5%,–
CS(=O)(=O)c1cccc(-c2nnc(NC(=O)CCS(=O)(=O)c3ccccc3)o2)c1,–,"inconclusive: 22.4 µM [inhibitor, partial curve, poor fit]"
O=C(NCCN1C(=O)S/C(=C\c2ccccc2Cl)C1=O)C1=COCCO1,–,"inconclusive: 8.91 µM [inhibitor, partial curve, poor fit]"
O=C(Nc1ccccc1)C1CC=CCC1C(=O)OCC1CCCO1 (stereo unspecified),–,"inconclusive: 29.1 µM [activator, single point]"
CCCCN1C2=C(C(=O)CCC2)C(c2ccc(Cl)c(Cl)c2)C2=C1c1ccccc1C2=O (stereo unspecified),–,active: 2.31 µM
CC1=C(C(=O)Nc2ccc(C)cc2Cl)C2(CCCCC2)OC1=O,inactive: -20.2% [at 46.1 µM],–
Cc1c(Br)cc(C(=O)OC2CCN(C)CC2)c(C)c1C,–,"inconclusive: 29.1 µM [inhibitor, single point]"
Cc1ccc(NC(=O)c2cc(CN3CCOCC3)on2)cc1Cl,–,"inconclusive: 1 µM [activator, partial curve, poor fit]"
Cc1ccc2nc(SCC(=O)N3c4ccccc4CC3C)c(C)cc2c1 (stereo unspecified),inactive: 1.3%,–
Cc1ccccc1S(=O)(=O)Cc1ccc(C(=O)NCc2ccccc2Cl)o1,inactive: -21.6% [at 46.1 µM],–
Nc1nc(N)c(-c2cccc(C(F)(F)F)c2)c(Cc2cccc(C(F)(F)F)c2)n1,–,"inconclusive: 35.5 µM [inhibitor, single point]"
Cc1ccc(/C=N/NC(=O)c2c(-c3ccccc3)noc2C)o1,inactive: 5.2%,–
COc1cc(-c2nc3ccc(Cl)cn3c2Nc2ccc3c(c2)OCO3)ccc1O,–,"inconclusive: 11.2 µM [inhibitor, partial curve, poor fit]"
CCCC(O)(CCC)C(=O)NN(C(=O)OC)c1ccccc1,inactive: -0.73%,–
S=C(Cc1cccnc1)N1CCOCC1,–,"inconclusive: 0.058 µM [inhibitor, partial curve, poor fit]"
FC(F)Oc1ccc(N=C2SCC3CCCCN23)cc1 (stereo unspecified),–,"inconclusive: 2.51 µM [activator, single point]"
COc1ccc(C(=O)Nc2cc(Cl)cc(Cl)c2)c(OC)n1,–,"inconclusive: 3.98 µM [activator, partial curve, poor fit]"
Brc1ccc2nc3c(n2c1)CCCC3,inactive: 5.52%,–
CC(C(=O)NCc1cccc(Br)c1)n1ncn2cccc2c1=O (stereo unspecified),–,"inconclusive: 35.5 µM [inhibitor, single point]"
COc1ccc(CNC(=O)C2CCN(S(=O)(=O)c3c(C)noc3/C=C/c3cccs3)CC2)cc1,inactive: 25.3% [at 46.1 µM],–
COc1ccc(N2CCN(C(=O)c3cn(C)c4ccc(S(=O)(=O)N(C)C5CCCCC5)cc4c3=O)CC2)cc1,inactive: 17.9% [at 46.1 µM],–
COc1ccccc1N1CCN(C(=O)c2c(-c3c(F)cccc3Cl)noc2C)CC1,–,"inconclusive: 12.6 µM [inhibitor, single point]"
Cc1ccccc1OCC(=O)Nc1ccc(N2CCN(C(=O)c3ccco3)CC2)cc1,–,"inconclusive: 35.5 µM [inhibitor, single point]"
O=C(CCNC(=O)c1ccc(Br)cc1)NC1CCCc2ccccc21 (stereo unspecified),–,active: 7.08 µM
Cc1cc(F)ccc1NS(=O)(=O)c1cccc2nsnc12,inactive: 20.4%,–
CCN(CCCNC(=O)c1cn(CC)c2ccc(S(=O)(=O)N(C)C)cc2c1=O)c1cccc(C)c1,–,"inconclusive: 32.6 µM [inhibitor, single point]"

# Compounds listed so far containing bromine:
Structure (SMILES),"activity change, negative = inhibition",Potency
C=CCNCCCCOc1c(Cl)cc(C)cc1Br,inactive: -5.5%,–
Cc1c(Br)cc(C(=O)OC2CCN(C)CC2)c(C)c1C,–,"inconclusive: 29.1 µM [inhibitor, single point]"
Brc1ccc2nc3c(n2c1)CCCC3,inactive: 5.52%,–
CC(C(=O)NCc1cccc(Br)c1)n1ncn2cccc2c1=O (stereo unspecified),–,"inconclusive: 35.5 µM [inhibitor, single point]"
O=C(CCNC(=O)c1ccc(Br)cc1)NC1CCCc2ccccc21 (stereo unspecified),–,active: 7.08 µM

# Retrieved one by one from the entries so far:
Structure (SMILES),"activity change, negative = inhibition",Potency
COc1ccc(CNC(=O)C2CCN(S(=O)(=O)c3c(C)noc3/C=C/c3cccs3)CC2)cc1,inactive: 25.3% [at 46.1 µM],–
O=C(NCCN1C(=O)S/C(=C\c2ccccc2Cl)C1=O)C1=COCCO1,–,"inconclusive: 8.91 µM [inhibitor, partial curve, poor fit]"

# Continuation:

Structure (SMILES),"activity change, negative = inhibition",Potency
OCCC1CN(CC#Cc2ccccc2)CCN1Cc1ccccc1F (stereo unspecified),–,"inconclusive: 7.08 µM [activator, full curve, poor fit]"
Cc1ccc(-c2nc(S(=O)(=O)c3ccccc3)c(SCC(=O)NCC3CCCO3)o2)cc1 (stereo unspecified),–,"inconclusive: 3.16 µM [inhibitor, single point]"
O=C(O)Cc1sc(Nc2ccc(C(=O)O)cc2)nc1-c1ccccc1,inactive: 27.2% [at 46.1 µM],–
CCOC(=O)c1noc2ncn(CC(=O)Nc3cc(Cl)ccc3OC)c(=O)c12,–,"inconclusive: 0.562 µM [activator, full curve, poor fit]"
O=C(c1cccs1)c1cn(CCOc2ccc(F)cc2)c2ccccc12,inactive: 20.7% [at 46.1 µM],–
COc1ccc(C(=O)C[n+]2ccc(N(C)C)cc2)cc1,–,"inconclusive: 20 µM [inhibitor, single point]"
O=C1NC2(CCCCC2)C(=O)N1c1ccccc1,–,"inconclusive: 4.11 µM [activator, full curve, poor fit]"
COc1ccc(-c2csc(=Nc3ccccc3)n2CCO)cc1,–,inactive
COc1ccc(CNS(=O)(=O)c2ccc(N3CCCC3)cc2Br)cc1,–,"inconclusive: 11.2 µM [inhibitor, partial curve, poor fit]"
COc1cccc(C(C(=O)NC2CCCCC2)N(C(=O)c2cccs2)c2ccc3c(c2)OCO3)c1 (stereo unspecified),–,"inconclusive: 16.4 µM [inhibitor, partial curve, poor fit]"
Cc1ccc(S(=O)(=O)NC(=O)Nc2nnc(C3CC3)s2)cc1,inactive: -4.81%,–
O=c1oc2ccc3ccccc3c2cc1-c1nc2ccccc2o1,–,"inconclusive: 29.1 µM [activator, single point]"
CN(C)Cc1ccccc1C1(O)c2ccccc2CSc2ccccc21 (stereo unspecified),–,"inconclusive: 15.8 µM [inhibitor, single point]"
O=C(NCC(c1ccco1)N1CCN(c2ccc(F)cc2)CC1)c1cccs1 (stereo unspecified),inactive: -22.2%,–
CC(C)CC(NC(N)=O)C(=O)NCc1ccc(Cl)cc1 (stereo unspecified),–,"inconclusive: 17.8 µM [activator, single point]"
CC(C)(C)NCC(O)COCc1ccc(Cl)cc1 (stereo unspecified),inactive: -1.5%,–
COc1ccc(CN2CCN(C(=O)c3ccco3)CC2)cc1OCc1ccccc1,–,"inconclusive: 35.5 µM [inhibitor, single point]"
O=C1/C(=C/c2cccs2)SC(=S)N1CCCC(=O)N(CCO)c1ccccc1,–,"inconclusive: 7.08 µM [inhibitor, partial curve, poor fit]"
CCCOc1ccc(C(=O)NCC(c2ccc(OC)cc2)N2CCCCC2)cc1 (stereo unspecified),inactive: -29.8% [at 46.1 µM],–
CC(C)Cn1c(=O)c2c(nc3n2CC(C)CN3Cc2ccccc2)n(C)c1=O (stereo unspecified),–,"inconclusive: 10 µM [inhibitor, single point]"
COc1ccc(C/C(C)=N/NC(=S)Nc2ccc(Cl)cc2)cc1,–,"inconclusive: 4.47 µM [inhibitor, full curve]"
CC(C)(C)Nc1nc(Cl)nc(Nc2ccccc2)n1,–,"inconclusive: 5.62 µM [activator, single point]"
CCSc1nnc(NC(=O)c2c(C)noc2C)s1,inactive: 9.6% [at 46.1 µM],–
c1ccc(OCc2nc(-c3ccccc3)no2)cc1,–,"inconclusive: 15.8 µM [activator, partial curve, poor fit]"

# From PubChem BioAssay AID540256 (National Center for Advancing Translational Sciences (NCATS), 2011)
